Measurements as given in the supplement of paper PMC10849652.
Some of the results follow.

Sequences of proteins named here, by UniProt entry; tags and fusion partners are left off. A change or cut given only in a name is not applied to a line headed by its entry.
UniProt Q5T4S7, whole entry, looked up: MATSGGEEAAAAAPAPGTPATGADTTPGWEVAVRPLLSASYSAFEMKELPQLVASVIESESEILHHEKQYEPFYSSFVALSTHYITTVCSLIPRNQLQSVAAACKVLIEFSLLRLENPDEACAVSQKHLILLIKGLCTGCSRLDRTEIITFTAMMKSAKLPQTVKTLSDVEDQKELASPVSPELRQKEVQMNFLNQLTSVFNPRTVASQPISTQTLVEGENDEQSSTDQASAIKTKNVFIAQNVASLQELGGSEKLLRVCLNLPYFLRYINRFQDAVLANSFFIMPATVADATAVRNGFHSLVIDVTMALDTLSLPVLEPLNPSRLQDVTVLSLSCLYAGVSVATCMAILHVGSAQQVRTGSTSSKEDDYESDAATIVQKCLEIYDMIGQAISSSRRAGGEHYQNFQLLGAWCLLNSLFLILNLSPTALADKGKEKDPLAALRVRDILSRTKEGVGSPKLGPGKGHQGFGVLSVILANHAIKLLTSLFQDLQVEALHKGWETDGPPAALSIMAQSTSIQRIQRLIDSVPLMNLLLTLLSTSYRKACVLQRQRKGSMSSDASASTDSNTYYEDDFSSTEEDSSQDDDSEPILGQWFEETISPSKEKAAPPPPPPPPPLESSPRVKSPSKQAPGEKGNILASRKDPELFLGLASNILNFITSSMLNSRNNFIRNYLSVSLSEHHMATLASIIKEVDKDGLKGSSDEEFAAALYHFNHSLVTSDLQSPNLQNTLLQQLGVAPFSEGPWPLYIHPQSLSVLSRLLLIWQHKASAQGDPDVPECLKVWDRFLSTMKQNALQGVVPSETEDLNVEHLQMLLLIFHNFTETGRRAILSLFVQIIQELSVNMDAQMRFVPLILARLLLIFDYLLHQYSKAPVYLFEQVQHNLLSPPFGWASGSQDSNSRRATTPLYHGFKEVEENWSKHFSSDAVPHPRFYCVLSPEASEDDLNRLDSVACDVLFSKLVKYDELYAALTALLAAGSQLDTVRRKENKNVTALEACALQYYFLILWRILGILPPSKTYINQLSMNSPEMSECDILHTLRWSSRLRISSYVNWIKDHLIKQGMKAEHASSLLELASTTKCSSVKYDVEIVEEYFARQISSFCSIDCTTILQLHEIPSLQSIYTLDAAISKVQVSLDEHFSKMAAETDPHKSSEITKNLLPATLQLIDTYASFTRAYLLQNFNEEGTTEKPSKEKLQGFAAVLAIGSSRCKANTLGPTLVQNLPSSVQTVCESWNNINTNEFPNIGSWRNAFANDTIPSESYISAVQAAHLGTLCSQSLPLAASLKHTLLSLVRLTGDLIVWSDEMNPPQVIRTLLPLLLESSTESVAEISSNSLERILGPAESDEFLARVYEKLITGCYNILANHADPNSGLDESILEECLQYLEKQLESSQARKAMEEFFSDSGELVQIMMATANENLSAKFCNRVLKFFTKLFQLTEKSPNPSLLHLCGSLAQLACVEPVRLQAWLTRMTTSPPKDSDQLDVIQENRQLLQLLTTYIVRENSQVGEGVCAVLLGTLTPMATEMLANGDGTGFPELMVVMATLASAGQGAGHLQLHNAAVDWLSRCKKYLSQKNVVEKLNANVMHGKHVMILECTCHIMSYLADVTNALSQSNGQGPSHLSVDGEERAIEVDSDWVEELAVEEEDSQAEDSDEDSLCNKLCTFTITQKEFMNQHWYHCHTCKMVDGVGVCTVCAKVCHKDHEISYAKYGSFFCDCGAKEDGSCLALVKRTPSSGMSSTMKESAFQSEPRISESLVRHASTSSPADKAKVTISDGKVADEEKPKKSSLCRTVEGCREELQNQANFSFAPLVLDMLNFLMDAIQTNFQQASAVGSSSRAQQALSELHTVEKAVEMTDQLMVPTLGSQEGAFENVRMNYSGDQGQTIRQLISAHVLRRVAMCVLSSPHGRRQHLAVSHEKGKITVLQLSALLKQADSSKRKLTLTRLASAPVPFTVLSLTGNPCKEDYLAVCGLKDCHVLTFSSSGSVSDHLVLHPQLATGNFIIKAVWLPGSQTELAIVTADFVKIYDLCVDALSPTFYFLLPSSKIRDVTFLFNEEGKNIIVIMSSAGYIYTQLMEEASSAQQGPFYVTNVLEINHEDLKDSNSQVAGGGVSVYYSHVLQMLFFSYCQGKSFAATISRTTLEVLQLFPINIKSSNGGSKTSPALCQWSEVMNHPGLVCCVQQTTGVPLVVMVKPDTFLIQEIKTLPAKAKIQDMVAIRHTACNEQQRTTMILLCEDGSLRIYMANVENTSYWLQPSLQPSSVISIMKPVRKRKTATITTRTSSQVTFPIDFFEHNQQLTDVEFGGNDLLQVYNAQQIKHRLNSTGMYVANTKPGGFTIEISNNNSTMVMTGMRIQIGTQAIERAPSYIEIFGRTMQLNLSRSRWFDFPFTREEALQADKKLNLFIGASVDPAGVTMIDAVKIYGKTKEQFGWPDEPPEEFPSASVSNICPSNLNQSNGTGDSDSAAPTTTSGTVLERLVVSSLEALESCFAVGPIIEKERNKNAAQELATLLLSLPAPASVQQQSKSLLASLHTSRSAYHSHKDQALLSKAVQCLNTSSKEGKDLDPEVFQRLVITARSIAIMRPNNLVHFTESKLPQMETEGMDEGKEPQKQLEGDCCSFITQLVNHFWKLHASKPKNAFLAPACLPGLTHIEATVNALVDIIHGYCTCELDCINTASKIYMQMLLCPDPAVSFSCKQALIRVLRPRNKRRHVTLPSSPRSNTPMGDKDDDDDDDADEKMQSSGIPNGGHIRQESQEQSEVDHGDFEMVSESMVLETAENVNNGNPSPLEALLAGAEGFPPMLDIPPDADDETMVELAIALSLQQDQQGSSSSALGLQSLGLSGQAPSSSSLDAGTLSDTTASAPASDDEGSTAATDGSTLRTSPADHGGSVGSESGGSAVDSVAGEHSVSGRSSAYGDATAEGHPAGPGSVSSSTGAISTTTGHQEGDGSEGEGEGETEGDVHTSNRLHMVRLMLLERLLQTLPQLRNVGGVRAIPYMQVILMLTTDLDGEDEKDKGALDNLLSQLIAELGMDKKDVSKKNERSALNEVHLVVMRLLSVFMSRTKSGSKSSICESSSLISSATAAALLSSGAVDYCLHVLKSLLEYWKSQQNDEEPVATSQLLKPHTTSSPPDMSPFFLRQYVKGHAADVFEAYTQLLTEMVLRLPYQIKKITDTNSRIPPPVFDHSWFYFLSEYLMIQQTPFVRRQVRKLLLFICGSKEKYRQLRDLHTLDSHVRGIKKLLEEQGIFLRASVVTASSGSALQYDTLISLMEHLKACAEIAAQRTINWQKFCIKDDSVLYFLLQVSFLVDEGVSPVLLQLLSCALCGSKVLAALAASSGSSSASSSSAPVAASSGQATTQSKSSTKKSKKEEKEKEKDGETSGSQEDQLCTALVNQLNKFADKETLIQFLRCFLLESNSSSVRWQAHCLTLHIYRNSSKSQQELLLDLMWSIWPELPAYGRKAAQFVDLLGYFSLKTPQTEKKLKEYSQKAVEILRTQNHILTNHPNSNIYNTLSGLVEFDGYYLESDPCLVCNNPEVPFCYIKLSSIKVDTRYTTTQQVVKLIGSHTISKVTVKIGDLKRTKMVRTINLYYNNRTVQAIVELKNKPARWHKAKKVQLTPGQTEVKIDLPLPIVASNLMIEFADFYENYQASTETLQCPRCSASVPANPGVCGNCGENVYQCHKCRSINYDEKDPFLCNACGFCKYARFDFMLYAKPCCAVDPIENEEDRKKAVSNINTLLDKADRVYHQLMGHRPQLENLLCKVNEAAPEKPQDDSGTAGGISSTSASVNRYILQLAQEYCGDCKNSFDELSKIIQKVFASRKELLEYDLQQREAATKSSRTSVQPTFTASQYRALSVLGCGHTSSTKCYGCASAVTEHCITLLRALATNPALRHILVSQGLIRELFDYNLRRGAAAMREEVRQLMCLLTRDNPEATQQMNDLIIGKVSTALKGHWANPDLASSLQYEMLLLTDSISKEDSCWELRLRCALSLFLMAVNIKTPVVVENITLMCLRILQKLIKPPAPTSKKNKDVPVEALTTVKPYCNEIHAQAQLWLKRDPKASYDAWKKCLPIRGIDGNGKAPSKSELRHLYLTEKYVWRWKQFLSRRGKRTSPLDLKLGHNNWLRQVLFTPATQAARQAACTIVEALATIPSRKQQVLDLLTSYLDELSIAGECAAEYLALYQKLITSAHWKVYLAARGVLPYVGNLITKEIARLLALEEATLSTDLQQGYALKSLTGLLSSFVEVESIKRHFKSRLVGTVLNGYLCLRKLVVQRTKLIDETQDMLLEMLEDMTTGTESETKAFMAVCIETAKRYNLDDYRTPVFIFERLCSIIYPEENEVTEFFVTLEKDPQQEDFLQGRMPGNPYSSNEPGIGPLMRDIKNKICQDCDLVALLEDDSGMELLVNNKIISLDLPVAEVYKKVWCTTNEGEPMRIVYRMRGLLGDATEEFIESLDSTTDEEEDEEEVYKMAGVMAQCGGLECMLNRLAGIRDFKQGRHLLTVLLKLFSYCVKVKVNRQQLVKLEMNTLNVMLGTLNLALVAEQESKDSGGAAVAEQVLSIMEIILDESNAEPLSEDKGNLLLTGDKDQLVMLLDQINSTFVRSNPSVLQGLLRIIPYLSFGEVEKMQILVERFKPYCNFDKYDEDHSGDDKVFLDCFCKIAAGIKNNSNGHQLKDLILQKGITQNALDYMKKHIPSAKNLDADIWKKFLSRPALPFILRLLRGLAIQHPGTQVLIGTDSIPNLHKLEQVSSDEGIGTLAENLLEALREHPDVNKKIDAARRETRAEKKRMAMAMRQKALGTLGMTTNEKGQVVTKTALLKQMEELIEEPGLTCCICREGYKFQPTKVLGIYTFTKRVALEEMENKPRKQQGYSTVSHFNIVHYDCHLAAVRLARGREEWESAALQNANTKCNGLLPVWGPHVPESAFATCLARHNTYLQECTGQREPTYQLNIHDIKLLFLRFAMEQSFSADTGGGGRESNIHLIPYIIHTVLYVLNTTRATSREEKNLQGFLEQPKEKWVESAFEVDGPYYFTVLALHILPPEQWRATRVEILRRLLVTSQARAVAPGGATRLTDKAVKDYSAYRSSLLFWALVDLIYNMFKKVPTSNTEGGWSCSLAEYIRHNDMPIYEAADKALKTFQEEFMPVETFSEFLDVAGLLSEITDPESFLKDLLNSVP
UniProt P22415: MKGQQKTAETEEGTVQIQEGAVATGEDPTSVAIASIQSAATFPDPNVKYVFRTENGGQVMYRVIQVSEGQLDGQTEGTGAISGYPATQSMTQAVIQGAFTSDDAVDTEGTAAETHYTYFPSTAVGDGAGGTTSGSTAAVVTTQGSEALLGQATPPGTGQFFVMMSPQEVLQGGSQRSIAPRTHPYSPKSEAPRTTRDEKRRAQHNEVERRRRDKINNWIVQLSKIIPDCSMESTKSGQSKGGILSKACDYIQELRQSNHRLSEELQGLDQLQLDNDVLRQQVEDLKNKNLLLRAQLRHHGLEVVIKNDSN

Columns and labels:
Experiment in all cases: log2 fold change, soluble protein after heating vs DMSO (PISA); higher = thermal stabilisation; K562 cells, 10 uM, 30 min; active = over 0.2 and 3.5 SD of the protein, either way, in both replicates (recomputed)
[1] = compound: COC1=CC=C(C=C1)CN2C=CC3=C2C=C(C=C3)C(=O)NO
Method in brief: (§1)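 K562 cells at 2×10^6 cells/mL were treated with 10 μM compound for 30 min. Aliquots were heated for 3 min across 48°C-58°C, pooled, and extracted in PBS with 0.5% NP-40 at 4°C; soluble protein was the supernatant after 21,000xg for 90 min. Soluble protein was quantified by TMTpro 16plex LC-MS/MS with channel sums equalised, and reported as log2 fold change in thermal stability against DMSO controls, with values from duplicates.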

filanesib = compound: CON(C)C(=O)N1N=C(c2cc(F)ccc2F)S[C@@]1(CCCN)c1ccccc1 [filanesib]
Method in brief: as §1

zotarolimus = compound: CO[C@H]1C[C@@H]2CC[C@@H](C)[C@@](O)(O2)C(=O)C(=O)N2CCCC[C@H]2C(=O)O[C@H]([C@H](C)C[C@@H]2CC[C@H](n3cnnn3)[C@H](OC)C2)CC(=O)[C@H](C)/C=C(\C)[C@@H](O)[C@@H](OC)C(=O)[C@H](C)C[C@H](C)/C=C/C=C/C=C/1C [zotarolimus]
Method in brief: as §1

idasanutlin = compound: COc1cc(C(=O)O)ccc1NC(=O)[C@@H]1N[C@@H](CC(C)(C)C)[C@](C#N)(c2ccc(Cl)cc2F)[C@H]1c1cccc(Cl)c1F [idasanutlin]
Method in brief: as §1

alisertib = compound: COc1cc(Nc2ncc3c(n2)-c2ccc(Cl)cc2C(c2c(F)cccc2OC)=NC3)ccc1C(=O)O [alisertib]
Method in brief: as §1

[2] = compound: COc1cc2nc(-c3cc(F)ccc3O)nc(N[C@@H]3CNC[C@H]3C(C)(C)O)c2cc1OC
Method in brief: as §1

gefitinib = compound: COc1cc2ncnc(Nc3ccc(F)c(Cl)c3)c2cc1OCCCN1CCOCC1 [gefitinib]
Method in brief: as §1

[3] = compound: COc1cccc2cc(-c3nc([C@H]4CC[C@H](C(=O)O)CC4)n4ncnc(N)c34)[nH]c12
Method in brief: as §1

lapatinib = compound: CS(=O)(=O)CCNCc1ccc(-c2ccc3ncnc(Nc4ccc(OCc5cccc(F)c5)c(Cl)c4)c3c2)o1 [lapatinib]
Method in brief: as §1

pictilisib = compound: CS(=O)(=O)N1CCN(Cc2cc3nc(-c4cccc5[nH]ncc45)nc(N4CCOCC4)c3s2)CC1 [pictilisib]
Method in brief: as §1

[4] = compound: CS(=O)(=O)c1ccc(-c2cnc(N)c(C(=O)Nc3ccccc3)n2)cc1
Method in brief: as §1

crizotinib = compound: C[C@@H](Oc1cc(-c2cnn(C3CCNCC3)c2)cnc1N)c1c(Cl)ccc(F)c1Cl [crizotinib]
Method in brief: as §1

[5] = compound: C[C@@H]1COCCN1C2=NC(=NC(=C2)C3(CC3)S(=O)(=O)C)C4=C5C=CNC5=CC=C4
Method in brief: as §1

[6] = compound: C[C@H](C1=CC=C(C=C1)C(=O)NC2=C3C=CNC3=NC=C2)N
Method in brief: as §1

duvelisib = compound: C[C@H](Nc1ncnc2nc[nH]c12)c1cc2cccc(Cl)c2c(=O)n1-c1ccccc1 [duvelisib]
Method in brief: as §1

gandotinib = compound: Cc1cc(Nc2cc(CN3CCOCC3)c3nc(C)c(Cc4ccc(Cl)cc4F)n3n2)n[nH]1 [gandotinib]
Method in brief: as §1

tozasertib = compound: Cc1cc(Nc2cc(N3CCN(C)CC3)nc(Sc3ccc(NC(=O)C4CC4)cc3)n2)n[nH]1 [tozasertib]
Method in brief: as §1

[7] = compound: Cc1cc(SCc2sc(-c3ccc(C(F)(F)F)cc3)nc2C)ccc1OCC(=O)O
Method in brief: as §1

doramapimod = compound: Cc1ccc(-n2nc(C(C)(C)C)cc2NC(=O)Nc2ccc(OCCN3CCOCC3)c3ccccc23)cc1 [doramapimod]
Method in brief: as §1

ispinesib = compound: Cc1ccc(C(=O)N(CCCN)[C@@H](c2nc3cc(Cl)ccc3c(=O)n2Cc2ccccc2)C(C)C)cc1 [ispinesib]
Method in brief: as §1

| Target | log2 fold change [1] | log2 fold change (filanesib) | log2 fold change (zotarolimus) | log2 fold change (idasanutlin) | log2 fold change (alisertib) | log2 fold change [2] | log2 fold change (gefitinib) | log2 fold change [3] | log2 fold change (lapatinib) | log2 fold change (pictilisib) | log2 fold change [4] | log2 fold change (crizotinib) | log2 fold change [5] | log2 fold change [6] | log2 fold change (duvelisib) | log2 fold change (gandotinib) | log2 fold change (tozasertib) | log2 fold change [7] | log2 fold change (doramapimod) | log2 fold change (ispinesib) |
| --- | --- | --- | --- | --- | --- | --- | --- | --- | --- | --- | --- | --- | --- | --- | --- | --- | --- | --- | --- | --- |
| VAPA (UniProt Q9P0L0) | inactive: -0.056 | inactive: -0.014 | inactive: -0.017 | inactive: -0.034 | inactive: -0.025 | inactive: 0.028 | inactive: 0.036 | inactive: 0.036 | inactive: -0.057 | inactive: -0.277 | inactive: -0.015 | inactive: 0.04 | inactive: 0.02 | inactive: 0.017 | inactive: 0.027 | inactive: -0.184 | inactive: 0.013 | inactive: 0.01 | inactive: 0.009 | inactive: 0.073 |
| VAPB (UniProt O95292) | inactive: -0.02 | inactive: -0.027 | inactive: 0.034 | inactive: -0.016 | inactive: -0.032 | inactive: 0.06 | inactive: 0.016 | inactive: 0.006 | inactive: -0.033 | inactive: -0.063 | inactive: -0.018 | inactive: 0.069 | inactive: 0.036 | inactive: -0.109 | inactive: 0.023 | inactive: -0.021 | inactive: -0.006 | inactive: -0.03 | inactive: 0.01 | inactive: 0.018 |
| USP24 (UniProt Q9UPU5) | inactive: -0.03 | inactive: -0.179 | active: 0.397 | active: -0.342 | inactive: -0.008 | inactive: 0.116 | inactive: 0.099 | active: 0.385 | inactive: 0.019 | inactive: 0.258 | inactive: 0.062 | inactive: 0.204 | active: 0.396 | inactive: 0.015 |  | inactive: -0.213 |  | inactive: -0.017 | inactive: -0.041 | inactive: 0.115 |
| USO1 isoform 2 (UniProt O60763) | inactive: 0.009 | inactive: -0.054 | inactive: 0.034 | inactive: -0.054 | inactive: -0.037 | inactive: -0.031 | inactive: 0.003 | inactive: 0.01 | inactive: 0.016 | inactive: 0.014 | inactive: 0.001 | inactive: -0.031 | inactive: 0.05 | inactive: -0.068 |  | inactive: -0.062 |  | inactive: 0.052 | inactive: -0.019 | inactive: 0.012 |
| UBR4 isoform 2 (UniProt Q5T4S7) | inactive: 0.023 | inactive: 0.059 | inactive: 0.031 | inactive: 0.047 | inactive: -0.088 | inactive: -0.005 | inactive: -0.037 | inactive: -0.094 | inactive: 0.032 | inactive: -0.02 | inactive: 0.024 | inactive: -0.066 | inactive: -0.059 | inactive: 0.134 | inactive: -0.047 | inactive: -0.024 | inactive: 0.055 | inactive: 0.13 | inactive: 0.061 | inactive: -0.085 |
| UGGT2 (UniProt Q9NYU1) | inactive: -0.068 | inactive: 0.031 | inactive: -0.03 | inactive: 0.021 | inactive: -0.003 | inactive: -0.121 | inactive: 0.028 | inactive: 0 | inactive: 0.069 | inactive: 0.052 | inactive: 0.045 | inactive: 0.027 | inactive: -0.039 | inactive: 0.17 | inactive: -0.007 | inactive: 0.146 | inactive: -0.014 | inactive: 0.072 | inactive: 0.081 | inactive: -0.074 |
| VARS2, A0A0G2JL52 | inactive: 0.061 | inactive: -0.078 | inactive: 0.001 | inactive: -0.04 | inactive: -0.01 | inactive: -0.017 | inactive: -0.009 | inactive: 0.064 | inactive: 0.022 | inactive: 0.024 | inactive: 0.004 | inactive: 0 | inactive: 0.06 | inactive: 0.018 |  | inactive: -0.061 |  | inactive: 0.025 | inactive: 0.048 | active: -0.244 |
| USF1 (UniProt P22415) | inactive: -0.117 | inactive: 0.11 |  | inactive: -0.097 | inactive: -0.051 | inactive: -0.01 | inactive: -0.041 | inactive: 0 | inactive: -0.056 | inactive: -0.109 | inactive: 0.08 | inactive: -0.043 | inactive: -0.017 |  |  | inactive: -0.035 |  |  | inactive: -0.098 | inactive: -0.031 |
| USP20 (UniProt Q9Y2K6) | inactive: 0.056 | inactive: 0.021 | inactive: -0.078 | inactive: -0.105 | inactive: 0.077 | inactive: -0.182 | inactive: 0.063 | inactive: -0.229 | inactive: 0.052 |  | inactive: -0.189 | inactive: -0.131 | inactive: -0.066 | inactive: 0.192 | inactive: -0.185 |  |  | inactive: -0.002 | inactive: -0.036 | inactive: -0.117 |

Individual results from above.
VAPA (UniProt Q9P0L0) | log2 fold change (crizotinib): inactive: 0.04
VAPB (UniProt O95292) | log2 fold change (lapatinib): inactive: -0.033
